Reference: PubChem BioAssay AID1671190 (National Center for Advancing Translational Sciences (NCATS), 2021)
Where “and” joins values, the source holds several entries; their conditions need not be identical. Equal values may be shown once. Screen size: about 580,000 compounds; about 6,100 (1.1%) were called active. The inconclusive results got no clear call from the source; some entries with a clear call stand among them for comparison. Calls come from the whole dose curve; as a rule, active = well fitted inhibition curve with a large enough effect; inconclusive = small, poorly fitted or top-dose-only effect, or another doubt; inactive = no such curve, though single readings can be large or run the other way. A potency beside an inconclusive call is a rough fit, not a confirmed value.

Chains of the proteins cited; added tags and fusions are not shown. Lines headed by an entry give the natural chain unless they say otherwise; changes in a name come on top.
UniProt P18054: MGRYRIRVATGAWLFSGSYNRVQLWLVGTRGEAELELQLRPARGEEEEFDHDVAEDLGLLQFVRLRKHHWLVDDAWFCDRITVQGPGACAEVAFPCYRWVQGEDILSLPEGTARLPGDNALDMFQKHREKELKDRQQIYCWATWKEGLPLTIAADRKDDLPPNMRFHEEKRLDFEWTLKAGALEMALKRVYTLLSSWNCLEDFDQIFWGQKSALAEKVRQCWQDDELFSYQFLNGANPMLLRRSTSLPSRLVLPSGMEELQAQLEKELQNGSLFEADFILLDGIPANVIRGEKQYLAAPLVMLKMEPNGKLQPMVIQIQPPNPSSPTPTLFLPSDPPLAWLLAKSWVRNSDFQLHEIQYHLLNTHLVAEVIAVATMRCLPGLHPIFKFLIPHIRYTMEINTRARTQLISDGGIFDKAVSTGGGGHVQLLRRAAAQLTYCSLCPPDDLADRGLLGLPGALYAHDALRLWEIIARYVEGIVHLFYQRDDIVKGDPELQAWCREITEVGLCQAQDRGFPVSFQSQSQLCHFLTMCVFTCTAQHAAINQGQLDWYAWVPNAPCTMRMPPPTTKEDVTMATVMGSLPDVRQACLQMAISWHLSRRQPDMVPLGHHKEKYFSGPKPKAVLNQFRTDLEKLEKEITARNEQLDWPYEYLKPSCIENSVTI

What follows are compounds tested against Polyunsaturated fatty acid lipoxygenase ALOX12 (Homo sapiens) (UniProt P18054) (assay: Primary qHTS assay for inhibitors of human arachidonate 12S-lipoxygenase (ALOX12): Round 2). Conditions: purified 12hLO, xylenol orange hydroperoxide absorbance; activity change, negative = inhibition: at 108 µM (top of the series) unless noted.
Procedure, shortened: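 Purified human 12hLO at 150 nM in 25 mM Hepes, 0.01% Triton X-100, pH 7.0, preincubated 15 min at room temperature with compound. Reaction started with 40 uM arachidonic acid, 30 min at room temperature. Hydroperoxide measured by Fe-xylenol orange, 573/405 nm absorbance ratio.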
% is set by controls: 0 for no effect and ±100 for the full control effect; potency is the fitted concentration of half-maximal effect.

Compound | activity change, negative = inhibition | Potency
COc1ccc(C(C(=O)NC2CCCC2)n2c(Cc3cc(F)cc(F)c3)nc3ccccc32)cc1 (centres undefined) | inactive: 18% | 
COc1ccc(-c2cc(C(F)(F)F)nc(-n3nc(C(F)(F)F)cc3C)n2)cc1 | inactive: 9.78% | 
COc1ccc2cc(C(=O)C3CCCN(C(=O)CCc4cnn(C)c4)C3)ccc2c1 (centres undefined) | inactive: -14.3% | 
c1ccc(-n2cnnc2CC2CCN(Cc3ccc(-c4ccn[nH]4)o3)CC2)cc1 |  | inconclusive: 2.82 µM [inhibitor, full curve, poor fit]
Cc1cc(C)c(S(=O)(=O)N2CCN(C(C(=O)NC3CC3)c3ccccc3)CC2)c(C)c1 (centres undefined) |  | inconclusive: 50.1 µM [inhibitor, single point]
COc1cc(OC)cc(C(=O)N[C@H](C(=O)NC23CC4CC(CC(C4)C2)C3)C(C)C)c1 | inactive: 0% | 
CC(C)(C)C(=O)N1N=C(c2ccco2)CC1c1ccc2nccnc2c1 (centres undefined) |  | inconclusive: 31.6 µM [inhibitor, partial curve, poor fit]
CCN(CC)CCNS(=O)(=O)c1ccc(OC)c(Br)c1 |  | active: 3.55 µM
CCc1noc(C)c1C(=O)N1CCN(c2cccc(C)c2C)CC1 | inactive: -20.2% | 
Cc1c(C(=O)N2CCN(c3ccc([N+](=O)[O-])cc3)CC2)sc2ncn(CC(=O)N3CCOCC3)c(=O)c12 |  | inconclusive: 50.1 µM [inhibitor, partial curve, poor fit]
N#Cc1ccsc1NC(=O)c1ccccc1Cc1ccccc1 | inactive: -45.9% | 
Cc1ccc(C(=O)N2CCN(CCc3ccccc3)CC2)cc1C | inactive: 1.88% | 
COCCCn1cc(CN2CC(N3CCN(Cc4cccc(C)c4)CC3)CS2(=O)=O)nn1 (centres undefined) |  | active: 11.2 µM
COc1ccc(NS(=O)(=O)c2ccc(NS(=O)(=O)c3ccc(SC)cc3)cc2)c(OC)c1 | inactive: -15.9% | 
NC(Cc1ccccc1)c1csc(NC(=O)c2cccc(OC(F)(F)F)c2)n1 (centres undefined) |  | inconclusive: 44.7 µM [inhibitor, partial curve, poor fit]
COc1ccc(-c2sc3cc(OC)c(OC)cc3c2C#CC(C)(C)O)cc1 |  | inconclusive: 44.7 µM [inhibitor, partial curve, poor fit]
N#Cc1cnc2nc1NCCCCCCC2 |  | inconclusive: 3.55 µM [inhibitor, full curve, poor fit]
COc1cccc(NC(=O)Cn2c(=O)n(CC(=O)NCc3ccc(C)cc3)c(=O)c3sccc32)c1 |  | inconclusive: 89.1 µM [inhibitor, partial curve, poor fit]
COCC(=O)NC[C@H]1CCN(Cc2cccc(C#N)c2)C[C@H]1N(C)C | inactive: 90.2% | 
Cc1ccc(S(=O)(=O)N2CCC3(CC2)CC(=O)c2ccccc2O3)cc1 |  | inconclusive: 89.1 µM [inhibitor, partial curve, poor fit]
Nc1nnc(SCC(=O)Nc2ccccc2)s1 |  | inconclusive: 141 µM [inhibitor, single point]
O=C(O)c1nccnc1C(=O)Nc1ccc(Cl)cc1Cl |  | inconclusive: 3.55 µM [inhibitor, full curve, poor fit]
Cc1ccc(C(c2ccccc2)c2c(C)[nH]c3ccccc23)s1 (centres undefined) |  | inconclusive: 44.7 µM [inhibitor, partial curve, poor fit]

Single entries from the results shown.
Potency, CC(C)(C)C(=O)N1N=C(c2ccco2)CC1c1ccc2nccnc2c1 (centres undefined) is entered as inconclusive: 31.6 µM [inhibitor, partial curve, poor fit]
Potency, CCN(CC)CCNS(=O)(=O)c1ccc(OC)c(Br)c1 is entered as active: 3.55 µM

The results go on.

Compound | activity change, negative = inhibition | Potency
Cc1cccc(NC(=O)OCc2ccccc2)c1 | inactive: 0.259% | 
COc1cc(/C=N/NC(=O)c2ccc(NS(=O)(=O)c3cccs3)cc2)cc(OC)c1O |  | inconclusive: 79.4 µM [inhibitor, partial curve, poor fit]
Cc1ccc(CC2C(=O)N(C)c3ccc(Br)cc32)cc1 (centres undefined) |  | inconclusive: 100 µM [inhibitor, partial curve, poor fit]
Cc1ccccc1NC(=O)CCc1ncc(-c2c(F)cccc2F)o1 | inactive: 24.6% | 
COCCNC(=O)c1nc2c(nnn2Cc2cc(C)ccc2C)c(=O)[nH]1 |  | inconclusive: 3.98 µM [inhibitor, single point]
Cc1cccc(CNc2ccc(C(CC(N)=O)NC(=O)Cc3cccc4ccccc34)cc2[N+](=O)[O-])c1 (centres undefined) | inactive: -7.67% | 
CC(=O)c1cc(F)c(N2CCCC2)cc1C |  | inconclusive: 89.1 µM [inhibitor, single point]
NNC(=O)CNC(c1ccccc1)c1cc(Br)ccc1N (centres undefined) | inactive: 175% | 
O=C(CCc1ncc(-c2ccc(Cl)cc2)o1)N1CCC(Cc2ccccc2)CC1 |  | inconclusive: 28.2 µM [inhibitor, single point]
COc1cc(/C=C2\Oc3cc(OS(C)(=O)=O)ccc3C2=O)cc(OC)c1OC | inactive: 17.2% | 
Cc1ccc(/C=C/C(=O)Nc2ccc(S(N)(=O)=O)cc2)o1 |  | inconclusive: 15.8 µM [inhibitor, partial curve, poor fit]
CCOc1ccc(NC(=O)CN(Cc2ccccc2)S(C)(=O)=O)cc1 |  | inconclusive: 63.1 µM [inhibitor, partial curve, poor fit]
N#Cc1c(N)sc2c1CCc1ccccc1-2 |  | inconclusive: 50.1 µM [inhibitor, partial curve, poor fit]
Cc1csc2ncnc(NNC(=O)c3ccc(Cl)cc3)c12 | inactive: -0.713% | 
CN(C)S(=O)(=O)c1ccc(NC(=O)N2CCN(c3ccccc3Cl)CC2)cc1 | inactive: 7.12% | 
O=C1NC(=O)/C(=C/c2ccc(-c3cccc([N+](=O)[O-])c3)o2)S1 | inactive: -53.3% | 
CCOC(=O)c1sc2c(c1C)c(=O)n(Cc1ccccc1)c(=O)n2CCN(C)C | inactive: -5.91% | 
CCn1cc(SCC(=O)Nc2ccc(C)cc2)c2ccccc21 | inactive: -17.8% | 
O=C(CCS(=O)(=O)c1ccc(Br)cc1)Nc1ccc(Cl)c(C(F)(F)F)c1 |  | inconclusive: 44.7 µM [inhibitor, partial curve, poor fit]
Cc1ccc(C)c(/C=C(/C#N)S(C)(=O)=O)c1 |  | inconclusive: 35.5 µM [inhibitor, single point]
COc1ccc(N2CCN(C(=O)C3CCN(S(=O)(=O)c4ccc(C)cc4)CC3)CC2)cc1 |  | inconclusive: 20 µM [inhibitor, partial curve, poor fit]
O=S(=O)(c1ccccc1)N1N=C(c2ccc(Cl)cc2)CC1c1ccco1 (centres undefined) |  | inconclusive: 39.8 µM [inhibitor, partial curve, poor fit]
COc1ccc(C2C(C#N)=C(N)Oc3cc(O)ccc32)cc1OC (centres undefined) | inactive: 22% | 

Compound | activity change, negative = inhibition | Potency
CCOC(=O)c1c(-c2ccco2)csc1NC(=O)COC(=O)c1cnc(C)cn1 |  | inconclusive: 44.7 µM [inhibitor, partial curve]
Cc1ccc2c(=O)n3c(nc2c1)C(Cc1ccccc1)NC(=O)c1ccc(Cl)cc1-3 (centres undefined) |  | inconclusive: 7.94 µM [inhibitor, full curve, poor fit]
CSc1ccc(COC(=O)c2cc([N+](=O)[O-])ccc2N2CCOCC2)cc1 | inactive: -23.6% | 
CCN1CCN(C2=C(Cl)C(=O)N(Cc3ccccc3)C2=O)CC1 |  | inconclusive: 39.8 µM [inhibitor, partial curve, poor fit]
CCCCC(C(=O)O)C(C)CC(=O)Nc1nncs1 (centres undefined) | inactive: 7.79% | 
CCOC(=O)c1sc(=S)n(C)c1NC(=O)c1cccc(Br)c1 |  | inconclusive: 31.6 µM [inhibitor, full curve, poor fit]
Cc1ncsc1CN1CCC([C@@H]2CNC[C@H]2CO)CC1 |  | inconclusive: 7.94 µM [inhibitor, full curve, poor fit]
CCOC(=O)c1cn(C2CN(S(=O)(=O)c3cccc(Cl)c3)C2)nn1 | inactive: 8.52% | 
CCC(CO)NC(=S)Nc1cccc(C)c1 (centres undefined) |  | inconclusive: 39.8 µM [inhibitor, partial curve, poor fit]
CCOc1cccc2sc(N(CCCN(C)C)C(=O)c3ccc(S(=O)(=O)N4CCCCCC4)cc3)nc12 |  | inconclusive: 56.2 µM [inhibitor, partial curve, poor fit]
CCN1CCC(c2nc3ccc(C)cc3c(=O)[nH]2)CC1 |  | inconclusive: 44.7 µM [inhibitor, partial curve] and inconclusive: 63.1 µM [inhibitor, full curve]
COc1ccc(C(=O)NCCSCc2ccccc2)cc1OC | inactive: -26.4% | 
Cc1cc(C)c(NC(=O)c2cc3ccccc3oc2=O)c(C)c1 |  | inconclusive: 44.7 µM [inhibitor, partial curve]
Cc1[nH]c2ccccc2c1CN1CCC(Cc2ccccc2)CC1 |  | inconclusive: 0.447 µM [inhibitor, full curve, poor fit]
COc1cc(Br)c(-c2sc(Nc3ccccc3)n[n+]2-c2ccc(F)cc2)cc1OC |  | inconclusive: 44.7 µM [inhibitor, partial curve]
CCC(C(=O)N1CCC2(CC1)C(=O)N(CC(=O)NCC(C)C)CN2c1ccccc1)c1ccccc1 (centres undefined) |  | inconclusive: 2 µM [inhibitor, full curve]
C/C(=N\NC(=O)c1ccc(C)cc1C)c1ccc2c(c1)Nc1ccccc1S2 | inactive: -20.4% | 
CC(C)c1cnc2c(c1SCc1cccc(F)c1)c(=O)n(C)c(=O)n2C | inactive: -15.8% | 
NC(=S)NNC(=S)NCc1ccccc1 |  | inconclusive: 50.1 µM [inhibitor, partial curve, poor fit]
O=C(O)CSc1nnc(-c2ccc(S(=O)(=O)N3CCCC3)cc2)n1Cc1ccco1 |  | inconclusive: 11.2 µM [inhibitor, full curve, poor fit]
NC(=O)c1cccc(NC(=O)c2ccccc2CSc2nc3ccccc3o2)c1 |  | inconclusive: 63.1 µM [inhibitor, single point]
Cc1ccc(-c2nc3nc(C)cc(C)n3c2Nc2ccc3c(c2)OCCO3)cc1 | inconclusive: -30% [inhibitor] | 
Cc1cnc(C(=O)OCC(=O)NC(C)c2ccccc2)cn1 (centres undefined) | inconclusive: -43.1% [inhibitor] | 
